# Data reported in US12018049B2, “Compositions and related methods for controlling vector-borne diseases” (priority 2017, dated 2024).
# “Also recorded” adds a separate entry of the source. At least one compound was matched to its structure with a doubt left.
# What was measured:
# Wolbachia = Wolbachia quantification by qPCR in mosquito midguts; assay type: in vivo, Aedes vexans; conditions: blood meals with 1, 10 or 50 μg/ml doxycycline, three meals; vs control
# Aedes vexans mosquitoes = experiment: Mosquito survival after doxycycline blood meals; assay type: in vivo; conditions: blood meals with 1, 10 or 50 μg/ml doxycycline; vs negative control
# [1] = test system: Acyrthosiphon pisum aphids; experiment: Aphid body size (area) from images; assay type: in vivo
# [2] = test system: Acyrthosiphon pisum aphids; experiment: Aphid survival monitored daily; assay type: in vivo
# [3] = test system: Acyrthosiphon pisum aphids; experiment: Aphid fecundity (offspring counts); assay type: in vivo; conditions: LSR-1; through plants, 100 μg/ml rifampicin with or without essential amino acids
# Experimental: (§1) In addition, the developmental stage (1st, 2nd, 3rd, 4th, 5th instar) was determined daily throughout the experiment. Once an aphid reached the 4th instar stage, they were given their own artificial feeding system in a deep petri dish so that fecundity could be monitored once they reached adulthood.
# For adult aphids, new nymphs were counted daily and then discarded. At the end of the experiments, fecundity was determined as the mean number of offspring produced daily once the aphid reached adulthood. Pictures of aphids were taken throughout the experiment to evaluate size differences between treatment groups.
# as §1, with “5th, and 5R (5th that has reproduced)” for “5th”
# For adult aphids, new nymphs were counted daily and then discarded. At the end of the experiments, fecundity was measured in two ways: 1) the mean day at which the first offspring for the treatment group was determined and 2) the mean number of offspring produced daily once the aphid reached adulthood. […]
# In addition, the developmental stage (1st, 2nd, 3rd, 4th, 5th instar) was determined daily throughout the experiment. […]
# aphids = experiment: Aphid feeding-sachet assay: survival; assay type: in vivo; conditions: second and third instar aphids fed agent in artificial diet sachet; vs negative control
Structure (SMILES),"Wolbachia specific genes (16S rDNA relative to S7, qPCR) (Wolbachia)",survival rate of mosquitoes (Aedes vexans mosquitoes),"aphid size ([1]; LSR-1, through plants, artificial diet + 100 μg/ml rifampicin, 12 days)","aphid size ([1]; leaf coating, 50 μg/ml rifampicin)","survival rate of aphids ([2]; LSR-1, combination delivery, 100 μg/ml rifampicin)","survival rate of aphids ([2]; LSR-1, leaf injection method A, 50 μg/ml rifampicin)","survival rate of aphids ([2]; LSR-1, leaf perfusion and through plant, 100 μg/ml rifampicin)","survival of aphids ([2]; LSR-1, through plants, artificial diet with essential amino acids + 100 μg/ml rifampicin)","survival rate of aphids ([2]; LSR-1, through plants, artificial diet without essential amino acids + 100 μg/ml rifampicin)","survival rate of aphids ([2]; eNASCO, leaf coating, 50 μg/ml rifampicin)",fecundity (offspring after adulthood) [3],survival rate of aphids (aphids)
C[C@H]1c2cccc(O)c2C(=O)C2=C(O)[C@]3(O)C(=O)C(C(N)=O)=C(O)[C@@H](N(C)C)[C@@H]3[C@@H](O)[C@@H]21 [doxycycline],reduction of Wolbachia specific genes,decreased compared to the control,,,,,,,,,,
CO[C@H]1/C=C/O[C@@]2(C)Oc3c(C)c(O)c4c(O)c(c(/C=N/N5CCN(C)CC5)c(O)c4c3C2=O)NC(=O)/C(C)=C\C=C\[C@H](C)[C@H](O)[C@@H](C)[C@@H](O)[C@@H](C)[C@H](OC(C)=O)[C@@H]1C [rifampicin],,,drastically affected,drastically affected,slightly lower survival rates than aphids treated with control solutions; also recorded: no statistically significant differences between groups,lower survival rates than aphids placed on leaves injected with the control solution,lower survival rates than aphids feeding on leaves perfused and treated with the control solution; also recorded: no statistically significant differences between groups,survived longer than those treated with rifampicin alone,lower survival rates than aphids treated with artificial diet alone,lower survival rates than aphids placed on coated leaves with the control,unable to reach adulthood and produce offspring,decreased compared to the control
